Measured values from publication PMC10510387, “Targeting Cytotoxic Agents through EGFR-Mediated Covalent Binding and Release” (Journal of Medicinal Chemistry, 2023).

Experiment: 19F NMR 5FU release study with N-acetyl-L-cysteine methyl ester
Format: physicochemical
Conditions: reaction with N-acetyl cysteine (methyl ester), up to 24 h
Experimental: Reaction of the model systems with N-acetyl-L-cysteine methyl ester was assessed by ^19F NMR.
Acrylate-5FU conjugate (0.125 M) in d^6-DMSO (0.25 mL) was prepared in an NMR tube. N-Acetyl cysteine methyl ester (1.9 mg, 0.011 mmol) or glutathione (3.4 mg, 0.011 mmol) in d^6-DMSO was prepared. The cysteine/glutathione solution was added to the NMR tube, and the tube was inverted several times. The ^19F NMR was taken immediately for t = 0 measurement. Further measurements were taken at t = 30 min and t = 60 min.

Row | Substance | 5FU release observed by 19F NMR
1 | 4-Methoxyphenyl (E)-3-(5-Fluoro-2,4-dioxo-3,4-dihydropyrimidin-1(2H)-yl)acrylate [compound 13] | small amount of release after 24 h
2 | (E)-N-(4-((3-Chloro-4-fluorophenyl)amino)-7-methoxyquinazolin-6-yl)-3-(5-fluoro-2,4-dioxo-3,4-dihydropyrimidin-1(2H)-yl)acrylamide [compound 57] | no evidence of 5FU release
